The list shows a part of the results. The main result of the screen is listed elsewhere. These columns were measured beside it and carry no call. The list favours compounds with an active or inconclusive main result. Potencies come from curve fits of mixed quality, noted in brackets.

The assay can be described thus: IkB Signaling. Particulars: ABC-DLBCL IkBa-CBG/CBR dual luciferase ratio (green luciferase fused to IkBa over red control in OCI-Ly3 lymphoma cells), 4 h; measured here: control luc red channel unless noted. In short, it runs like this: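 In this assay, an IκBα–CBG68 fusion accumulates when IKK-driven degradation is blocked; native CBR normalizes for cell number. OCI-Ly3 cells were treated 4 h with compound and doxycycline, then green and red light read after Chroma-Glo addition.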
Take `O=C(c1cnc(N2CCCCC2)c2ccccc12)N1CCN(c2ccccc2F)CC1`: the AC50 – broadly, the concentration at which the activity in the assay is half-maximal – was 39.8 µM [falling, single point].
The value for `CN(C)c1nc(N)nc(Nc2ccccc2C#N)n1` was 3.16 µM [falling, full curve]; that for `Oc1ccccc1NCC(O)Cn1ccc2ccccc21` (stereo unspecified) was 0.501 µM [falling, partial curve]; that for `COc1ccc(CNC(=O)CCc2c(C)nn(-c3ccc(N4CCCCC4)nn3)c2C)c(OC)c1` was 31.6 µM [falling, single point].
Turning to `CCOC(=O)COc1ccc(S(=O)(=O)Nc2ccc3c(c2)OCCO3)cc1`, the concentration at half-maximal activity (AC50) was 15.8 µM [falling, partial curve].
Then `Cc1ccc(-n2ncc(C(=O)NCCCN3CCN(c4cccc(Cl)c4)CC3)c2-n2cccc2)cc1`, with 15.8 µM [falling, partial curve]; and `CC(=O)N1CCc2cc(CNS(=O)(=O)c3ccc(Br)s3)ccc21`, with 39.8 µM [falling, single point].
The value for `CC1CCCN(Cc2cn3c(-c4cccc(Br)c4)nnc3s2)C1` (stereo unspecified) was 25.1 µM [falling, partial curve]; that for `Cc1cccc(N2CCN(C(=O)COc3cc(=O)n(C)c4ccccc34)CC2)c1C` was 15.8 µM [falling, partial curve].
Take `Cc1cccc(CNC(=O)C2CCN(c3nnc(-n4c(C)ccc4C)s3)CC2)c1`: the AC50 was 20 µM [falling, partial curve].
The value for `Cc1cc2oc(=O)c(CC(=O)O)c(C)c2c2occ(-c3ccc(F)cc3)c12` was 31.6 µM [falling, partial curve, poor fit]; that for `CCN1C(=O)C2(Nc3ccccc3-c3nc4ccccc4n32)c2cc(OC)ccc21` (stereo unspecified) was 15.8 µM [falling, partial curve].
On to `O=C(c1ccc2c(c1)OCCO2)N(Cc1cccnc1)c1nc2c(F)cccc2s1`, for which the AC50 was 15.8 µM [falling, partial curve].
In the case of `Cc1cccc(-c2noc(CN(C(=O)c3ccccc3Cl)C(C)C)n2)c1`, the AC50 was 25.1 µM [falling, single point].
The value for `COc1ccc(CCNC(=O)CCCn2c(=O)c3ccccc3n(Cc3ccc(F)cc3Cl)c2=O)cc1OC` was 39.8 µM [falling, single point]; that for `Cn1c(C(=O)NCCc2ccccc2)cc2c(=O)n3ccccc3nc21` was 25.1 µM [falling, single point]; that for `CCS(=O)(=O)N1CCc2cc(C(=O)Nc3cccc(Cl)c3C)ccc21` was 10 µM [falling, partial curve].
In the case of `COc1ccccc1C(=O)NCCn1cc(SCC(=O)Nc2cc(C)on2)c2ccccc21`, the AC50 was 15.8 µM [falling, partial curve].
Regarding `COc1ccc(Nc2nnc(Cc3ccc(Cl)cc3)c(=O)[nH]2)c(OC)c1`, the AC50 is 15.8 µM [falling, partial curve].
Then `Cc1cc(C)c2c(CC(=O)Nc3ccc(Cl)cn3)coc2c1`, with 7.94 µM [falling, partial curve].
The value for `Cc1ccc(CSCc2ccc(C(=O)NCCc3ccc(Cl)cc3)o2)cc1` was 25.1 µM [falling, single point]; that for `Cc1cc(C)cc(N2C(=O)CSC23C(=O)N(CC(=O)NCCc2ccccc2)c2ccccc23)c1` (stereo unspecified) was 0.0316 µM [falling, full curve, poor fit].
Then `CCOC(=O)C1=C(CS(=O)(=O)c2ccc(C)cc2)NC(=O)NC1c1ccc(C(C)C)cc1` (stereo unspecified), with 25.1 µM [falling, partial curve]; and `COc1ccccc1NCc1cccn1-c1nnc(N2CCOCC2)s1`, with 25.1 µM [falling, single point]; and `Cc1ccc(C)c(CN2C(=O)CSc3ccc(C(=O)NCc4ccc(F)cc4)cc32)c1`, with 3.16 µM [falling, single point].
Take `O=C(O)CCNS(=O)(=O)c1ccc2c(c1)Cc1ccccc1-2`: the AC50 was 1.26 µM [falling, full curve].
Then `COc1ccc(-n2nc(C(=O)Nc3ccccc3OC)c3c4ccccc4n(C)c3c2=O)cc1Cl`, with 15.8 µM [rising, partial curve]; and `CCC(OC(=O)CCc1nc2ccccc2[nH]c1=O)C(=O)c1ccccc1` (stereo unspecified), with 31.6 µM [falling, single point]; and `Cc1ccc(CSc2nc(-c3cccs3)ccc2C#N)cc1`, with 7.94 µM [rising, partial curve].
`COc1cccc(-c2nn(C)c3sc(C(=O)NCCc4ccc(Cl)cc4)cc23)c1`: the half-maximal activity concentration (AC50) was 5.01 µM [falling, full curve].
The value for `CCOc1ccc(NC(=O)NCCCN2CCN(c3ccc(F)cc3)CC2)cc1` was 0.631 µM [falling, partial curve]; that for `O=C(O)C1Nc2c(O)cccc2C2C=CCC12` (stereo unspecified) was 12.6 µM [falling, partial curve].
With `CCc1ccc2occ(CC(=O)Nc3c(C(=O)Nc4ccc(C)cc4)oc4ccccc34)c2c1`, the half-maximal activity concentration (AC50) was 10 µM [falling, partial curve].
The value for `COC(=O)c1c(SCC(=O)Nc2cc(C)cc(C)c2)[nH]c2ccccc2c1=O` was 12.6 µM [falling, partial curve]; that for `Cc1ccc(C)c(CN2C(=O)c3ccccc3S(=O)(=O)c3ccc(C(=O)N4CCCCCC4)cc32)c1` was 10 µM [falling, partial curve]; that for `Cc1csc(C(C#N)C(=O)c2cc3ccccc3o2)n1` (stereo unspecified) was 2.51 µM [falling, full curve].
Turning to `CC(=O)Nc1ccc(C2Sc3ccccc3NC3=C2C(=O)c2ccccc23)cc1` (stereo unspecified), the concentration at half-maximal activity (AC50) was 3.16 µM [rising, single point].
Regarding `Cc1oc2ncn(CC(C)C)c(=O)c2c1C(=O)NCCCN1CCCCC1`, the AC50 was 0.398 µM [rising, full curve].
Regarding `COc1cccc(NC(=O)CSc2ncc(S(=O)(=O)c3ccc(C)c(C)c3)c(=O)[nH]2)c1`, the half-maximal activity concentration (AC50) was 15.8 µM [falling, partial curve].
As to `Cc1ccc2c(c1)N(CC(=O)N1CCN(c3nc4ccccc4s3)CC1)C(=O)C(C)O2` (stereo unspecified), the AC50 is 12.6 µM [falling, partial curve].
Consider `CCc1ccc(NC(=O)CSc2nnc(Cc3cccn3C)n2-c2ccc(OC)cc2)cc1`, for which the AC50 was 12.6 µM [falling, partial curve].

The values above are taken from PubChem BioAssay AID445 (National Center for Advancing Translational Sciences (NCATS), 2006).
